PubChem BioAssay AID652259 | Drosophila RNAi Screening Center, 2013
The screen tested about 22,000 reagents; shown is an unselected part of those with a known target gene and a result. In the full data, 233 (1.1%) were called active. 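Light values are raw, unnormalised plate reads; the ratio scores behind the reporter calls were not deposited.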 Entries without a mark were called inactive. Reagents against one gene are numbered here. Names joined by + are all predicted targets of the reagent. The record does not give: the amount of reagent, the time to read-out, the dose of the treatment.

Test: 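Identify new Wingless signalling regulators in fly cells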 (primary screen)
System: Drosophila clone 8 imaginal disc epithelial cells
Knock-down reagent: long dsRNA against Drosophila genes
Conditions: pathway stimulated by co-transfected Wingless expression plasmid
Read-out: 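Firefly luciferase from a tcf-site Wingless reporter, measured alongside co-transfected Renilla luciferase that tracks transfection; pathway stimulated by a Wingless plasmid; the firefly-to-Renilla ratio is not deposited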
Scale: firefly reporter light: higher = more Wg reporter light, before normalisation; Renilla control light: higher = more transfected or surviving cells
Hit rule: 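a knock-down is a candidate when at least two out of four statistical tests show it departing from its plate mean; one test alone signals a weak candidate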
Meaning of the calls: active = candidate regulator (raises or lowers reporter); inactive = not a candidate

What is on record for Lrch (Leucine-rich-repeats and calponin homology domain protein)?
firefly reporter light, replicate 1: 14186; Renilla control light, replicate 1: 5372

What is on record for Ir54a + sub?
firefly reporter light, replicate 1: 5712; Renilla control light, replicate 1: 2141

With CG13218, how do the results read?
firefly reporter light, replicate 1: 5445; Renilla control light, replicate 1: 2533

What did the screen give for CG6893?
firefly reporter light, replicate 1: 5835; Renilla control light, replicate 1: 3136

How did the screen score RpL23 (Ribosomal protein L23)?
firefly reporter light, replicate 1: 3117; firefly reporter light, replicate 2: 6930; Renilla control light, replicate 1: 484; Renilla control light, replicate 2: 1827

For mRRF2 (mitochondrial ribosome recycling factor 2), what does the deposit list?
firefly reporter light, replicate 1: 17152; Renilla control light, replicate 1: 13703

How did the screen score SpdS (Spermidine Synthase)?
firefly reporter light, replicate 1: 16039; Renilla control light, replicate 1: 3643

What is on record for eEF5 (eukaryotic translation elongation factor 5)?
firefly reporter light, replicate 1: 3497; firefly reporter light, replicate 2: 7970; Renilla control light, replicate 1: 578; Renilla control light, replicate 2: 2740

What is on record for CG5597?
firefly reporter light, replicate 1: 14221; Renilla control light, replicate 1: 5190

How did the screen score betaTry (betaTrypsin) #1?
firefly reporter light, replicate 1: 12213; Renilla control light, replicate 1: 5450

Which result is listed for betaTry (betaTrypsin) #2?
firefly reporter light, replicate 1: 7.88e5; firefly reporter light, replicate 2: 8.34e5; Renilla control light, replicate 1: 3.63e5; Renilla control light, replicate 2: 3.64e5

For CG8301, how do the results read?
firefly reporter light, replicate 1: 10374; Renilla control light, replicate 1: 2411

Entries above whose gene name starts with C or c (4):
CG13218: firefly reporter light, replicate 1 = 5445; Renilla control light, replicate 1 = 2533
CG6893: firefly reporter light, replicate 1 = 5835; Renilla control light, replicate 1 = 3136
CG5597: firefly reporter light, replicate 1 = 14221; Renilla control light, replicate 1 = 5190
CG8301: firefly reporter light, replicate 1 = 10374; Renilla control light, replicate 1 = 2411

The listing continues.
What is on record for CG15399?
firefly reporter light, replicate 1: 2758; firefly reporter light, replicate 2: 6480; Renilla control light, replicate 1: 1432; Renilla control light, replicate 2: 2696

With mRpL10 (mitochondrial ribosomal protein L10), what does the deposit list?
firefly reporter light, replicate 1: 13077; Renilla control light, replicate 1: 3920

With CG15756, what was measured?
firefly reporter light, replicate 1: 16938; Renilla control light, replicate 1: 9060

For mmy (mummy), how do the results read?
firefly reporter light, replicate 1: 4960; Renilla control light, replicate 1: 2737

What is on record for Pino (Pinocchio) #1?
firefly reporter light, replicate 1: 24832; Renilla control light, replicate 1: 4466

How did the screen score Pino (Pinocchio) #2?
firefly reporter light, replicate 1: 14518; Renilla control light, replicate 1: 5251

What did the screen give for spn-A (spindle A)?
firefly reporter light, replicate 1: 7945; Renilla control light, replicate 1: 2483

What did the screen give for ChAT (Choline acetyltransferase) #1?
firefly reporter light, replicate 1: 3520; Renilla control light, replicate 1: 914

What is on record for ChAT (Choline acetyltransferase) #2?
firefly reporter light, replicate 1: 15185; Renilla control light, replicate 1: 3005

With ChAT (Choline acetyltransferase) #3, what does the deposit list?
firefly reporter light, replicate 1: 3.84e5; firefly reporter light, replicate 2: 6.11e5; Renilla control light, replicate 1: 1.74e5; Renilla control light, replicate 2: 1.54e5

For Cpr65Ax2 + Cpr65Ax1 #1, how do the results read?
firefly reporter light, replicate 1: 3865; firefly reporter light, replicate 2: 11073; Renilla control light, replicate 1: 1452; Renilla control light, replicate 2: 4171

How did the screen score Cpr65Ax2 + Cpr65Ax1 #2?
firefly reporter light, replicate 1: 1447; firefly reporter light, replicate 2: 9334; Renilla control light, replicate 1: 1169; Renilla control light, replicate 2: 4029

For CG32642, what does the deposit list?
firefly reporter light, replicate 1: 3661; Renilla control light, replicate 1: 791
